PubChem BioAssay AID686938 | Drosophila RNAi Screening Center – 2013

Assay: 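Looking for CRAC channel components and the factors controlling them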 (primary screen)
Cell system: Drosophila S2R+ cells
Knock-down reagent: long dsRNA against Drosophila genes, about 0.25 µg dsRNA per well, roughly 10,000 cells
Timing: 5 days of knock-down before the calcium assay
Challenge: thapsigargin (SERCA pump blocker) to empty calcium stores; entry signal taken 4 min after adding it
Measurement: 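Per-well fluo-4 fluorescence in two replicates, unnormalised, measured in resting cells and 4 min after store depletion by the SERCA blocker thapsigargin; ratio of the two present in few wells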
Scale: calcium entry signal: higher = stronger calcium signal after store depletion; entry to resting ratio: higher = more calcium entry relative to resting level; resting calcium signal: higher = higher resting calcium signal
Units: calcium entry signal in fluorescence units; resting calcium signal in fluorescence units
Active means: 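Hit if the duplicate-averaged plate z-score for entry over resting signal is under −3; wells with weak total dye signal (Fmax z < −2) or more than 5 off-targets removed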
Meaning of the calls: active = strongly reduced calcium entry; inactive = no strong reduction
The deposit covers about 23,000 reagents; shown is an unselected part of those with a known target gene and a result. Of all reagents, 75 (0.33%) got an active call. 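Raw plate signals without normalisation; calls rest on plate z-scores that were not deposited; ratio present for only 364 wells.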 The numbers tell different reagents against one gene apart. No sequences are given here. Not stated in the record: the dose of the treatment.

After knock-down of nxf2 the results were calcium entry signal, replicate 1 = 2.72e7; calcium entry signal, replicate 2 = 3.67e7; resting calcium signal, replicate 1 = 1.18e7; resting calcium signal, replicate 2 = 2.51e7; inactive. CG14024 #1 gave calcium entry signal, replicate 1 = 3.60e7; calcium entry signal, replicate 2 = 3.57e7; resting calcium signal, replicate 1 = 1.98e7; resting calcium signal, replicate 2 = 1.66e7; inactive. With knock-down of CG14024 #2 the results were calcium entry signal, replicate 1 = 4.44e7; resting calcium signal, replicate 1 = 1.95e7; inactive. With knock-down of CG15475, the record shows calcium entry signal, replicate 1 = 4.78e7; calcium entry signal, replicate 2 = 4.77e7; resting calcium signal, replicate 1 = 2.09e7; resting calcium signal, replicate 2 = 2.00e7; inactive. For tsg, the entry reads calcium entry signal, replicate 1 = 3.85e7; calcium entry signal, replicate 2 = 5.64e7; resting calcium signal, replicate 1 = 1.82e7; resting calcium signal, replicate 2 = 2.54e7; inactive. Gr93c showed calcium entry signal, replicate 1 = 4.03e7; calcium entry signal, replicate 2 = 3.56e7; resting calcium signal, replicate 1 = 5.19e7; resting calcium signal, replicate 2 = 1.66e7; inactive.

After knock-down of CG14537, the screen gave calcium entry signal, replicate 1 = 3.12e7; calcium entry signal, replicate 2 = 3.72e7; resting calcium signal, replicate 1 = 1.47e7; resting calcium signal, replicate 2 = 1.69e7; inactive.

Entries listed so far whose target name starts with C or c (4):
CG14024 #1 | calcium entry signal, replicate 1: 3.60e7; calcium entry signal, replicate 2: 3.57e7; resting calcium signal, replicate 1: 1.98e7; resting calcium signal, replicate 2: 1.66e7; activity call: inactive
CG14024 #2 | calcium entry signal, replicate 1: 4.44e7; resting calcium signal, replicate 1: 1.95e7; activity call: inactive
CG15475 | calcium entry signal, replicate 1: 4.78e7; calcium entry signal, replicate 2: 4.77e7; resting calcium signal, replicate 1: 2.09e7; resting calcium signal, replicate 2: 2.00e7; activity call: inactive
CG14537 | calcium entry signal, replicate 1: 3.12e7; calcium entry signal, replicate 2: 3.72e7; resting calcium signal, replicate 1: 1.47e7; resting calcium signal, replicate 2: 1.69e7; activity call: inactive

Further entries:
CG31788 scored calcium entry signal, replicate 1 = 3.06e7; calcium entry signal, replicate 2 = 3.35e7; resting calcium signal, replicate 1 = 1.62e7; resting calcium signal, replicate 2 = 1.73e7; inactive. With knock-down of CG7409, the screen gave calcium entry signal, replicate 1 = 3.71e7; calcium entry signal, replicate 2 = 5.27e7; resting calcium signal, replicate 1 = 1.67e7; resting calcium signal, replicate 2 = 2.40e7; inactive. For Adar, the values are calcium entry signal, replicate 1 = 3.77e7; calcium entry signal, replicate 2 = 4.64e7; entry to resting ratio 2; resting calcium signal, replicate 1 = 1.90e7; resting calcium signal, replicate 2 = 1.99e7; inactive. After knock-down of Pop2, the screen gave calcium entry signal, replicate 1 = 4.24e7; calcium entry signal, replicate 2 = 3.71e7; resting calcium signal, replicate 1 = 2.97e7; resting calcium signal, replicate 2 = 1.62e7; inactive. CG5510 scored calcium entry signal, replicate 1 = 4.78e7; calcium entry signal, replicate 2 = 5.32e7; resting calcium signal, replicate 1 = 2.24e7; resting calcium signal, replicate 2 = 2.35e7; inactive. After knock-down of Taf4, the record shows calcium entry signal, replicate 1 = 2.47e7; calcium entry signal, replicate 2 = 2.05e7; resting calcium signal, replicate 1 = 2.14e7; resting calcium signal, replicate 2 = 1.11e7; inactive.

SpdS showed calcium entry signal, replicate 1 = 3.70e7; calcium entry signal, replicate 2 = 3.65e7; resting calcium signal, replicate 1 = 1.90e7; resting calcium signal, replicate 2 = 1.89e7; inactive. CR31292 showed calcium entry signal, replicate 1 = 3.94e7; calcium entry signal, replicate 2 = 3.50e7; resting calcium signal, replicate 1 = 1.94e7; resting calcium signal, replicate 2 = 1.69e7; inactive. CG10748 showed calcium entry signal, replicate 1 = 2.64e7; calcium entry signal, replicate 2 = 3.62e7; resting calcium signal, replicate 1 = 1.49e7; resting calcium signal, replicate 2 = 1.65e7; inactive. For CG31908 #1, the values are calcium entry signal, replicate 1 = 2.00e7; calcium entry signal, replicate 2 = 3.66e7; resting calcium signal, replicate 1 = 1.09e7; resting calcium signal, replicate 2 = 1.65e7; inactive. Knock-down of CG31908 #2 resulted in: calcium entry signal, replicate 1 = 4.59e7; calcium entry signal, replicate 2 = 2.80e7; resting calcium signal, replicate 1 = 2.54e7; resting calcium signal, replicate 2 = 1.18e7; inactive. Silencing of Mip came out at: calcium entry signal, replicate 1 = 3.85e7; calcium entry signal, replicate 2 = 5.30e7; resting calcium signal, replicate 1 = 1.90e7; resting calcium signal, replicate 2 = 3.31e7; inactive.

Against Rx #1, the values are calcium entry signal, replicate 1 = 3.79e7; calcium entry signal, replicate 2 = 5.08e7; resting calcium signal, replicate 1 = 1.72e7; resting calcium signal, replicate 2 = 2.00e7; inactive. With knock-down of Rx #2, the record shows calcium entry signal, replicate 1 = 4.49e7; calcium entry signal, replicate 2 = 4.28e7; resting calcium signal, replicate 1 = 1.98e7; resting calcium signal, replicate 2 = 1.85e7; inactive.
